Data taken from publication PMC11707877.
These are yes or no findings as the source states them, for the method shown. In cells and extracts the contact can be indirect. Some results given as binding are weak or reduced against the parent protein; the word gives no strength.

By UniProt entry, the sequences of proteins in these tests, tags left out. Residues count along the entry.
UniProt Q9LND1, residues 61-244: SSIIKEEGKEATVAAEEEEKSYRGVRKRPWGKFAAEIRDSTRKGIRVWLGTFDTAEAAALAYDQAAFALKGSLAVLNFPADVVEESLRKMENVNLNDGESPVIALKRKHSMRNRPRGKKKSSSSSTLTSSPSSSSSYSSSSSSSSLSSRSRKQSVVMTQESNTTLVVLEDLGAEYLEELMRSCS
UniProt O22259: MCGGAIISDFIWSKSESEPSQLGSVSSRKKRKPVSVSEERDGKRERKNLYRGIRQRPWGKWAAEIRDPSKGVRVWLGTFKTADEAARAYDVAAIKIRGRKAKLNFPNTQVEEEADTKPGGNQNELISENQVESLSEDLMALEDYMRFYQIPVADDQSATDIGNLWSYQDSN
UniProt Q9LUM4: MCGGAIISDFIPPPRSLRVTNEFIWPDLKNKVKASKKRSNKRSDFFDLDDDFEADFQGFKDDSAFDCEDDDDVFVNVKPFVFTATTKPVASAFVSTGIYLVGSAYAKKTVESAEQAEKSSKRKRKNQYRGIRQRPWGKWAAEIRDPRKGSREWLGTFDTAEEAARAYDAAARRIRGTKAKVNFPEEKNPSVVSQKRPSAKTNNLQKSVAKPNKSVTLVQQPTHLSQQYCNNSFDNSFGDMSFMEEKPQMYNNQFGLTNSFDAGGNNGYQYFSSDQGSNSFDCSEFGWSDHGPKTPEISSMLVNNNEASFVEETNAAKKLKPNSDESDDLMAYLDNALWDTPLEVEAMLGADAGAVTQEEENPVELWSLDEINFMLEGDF
UniProt Q9SSA8: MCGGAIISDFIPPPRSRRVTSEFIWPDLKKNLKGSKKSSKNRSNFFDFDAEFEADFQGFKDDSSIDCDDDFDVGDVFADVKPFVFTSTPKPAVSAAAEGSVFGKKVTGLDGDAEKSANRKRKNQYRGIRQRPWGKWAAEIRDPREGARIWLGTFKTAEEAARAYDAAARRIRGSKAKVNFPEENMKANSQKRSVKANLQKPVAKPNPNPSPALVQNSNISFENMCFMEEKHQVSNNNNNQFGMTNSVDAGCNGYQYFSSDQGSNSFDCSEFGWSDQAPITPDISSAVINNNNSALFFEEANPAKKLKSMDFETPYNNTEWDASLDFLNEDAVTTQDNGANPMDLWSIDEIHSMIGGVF
UniProt P42736: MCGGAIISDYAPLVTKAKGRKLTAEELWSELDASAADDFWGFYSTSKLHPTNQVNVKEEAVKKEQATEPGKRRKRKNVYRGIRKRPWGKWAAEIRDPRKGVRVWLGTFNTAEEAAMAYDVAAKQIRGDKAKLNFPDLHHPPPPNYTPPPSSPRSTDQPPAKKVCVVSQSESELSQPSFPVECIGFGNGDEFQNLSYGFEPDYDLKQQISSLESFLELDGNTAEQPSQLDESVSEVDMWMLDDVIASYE
UniProt Q8H0T5: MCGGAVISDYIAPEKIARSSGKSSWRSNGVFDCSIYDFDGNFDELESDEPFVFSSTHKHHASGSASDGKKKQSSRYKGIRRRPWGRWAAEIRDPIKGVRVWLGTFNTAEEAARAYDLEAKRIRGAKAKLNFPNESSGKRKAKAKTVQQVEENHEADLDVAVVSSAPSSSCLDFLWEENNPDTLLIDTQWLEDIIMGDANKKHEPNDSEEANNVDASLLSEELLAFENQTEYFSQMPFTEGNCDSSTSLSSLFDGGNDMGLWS

These substances were tested against ORA59 (truncated coding sequence) fused to the N-terminal part of the firefly LUC (Arabidopsis thaliana) (UniProt Q9LND1) (assay: split reporter; split-LUC complementation in Arabidopsis protoplasts; ORA59 on the N-terminal part of the firefly LUC, ERFVIIs on the C-terminal part; firefly LUC activity normalized to total protein).

binding | Substance
no binding | HYPOXIA RESPONSIVE ERF2 (HRE2), full-length, fused to the C-terminal part of the firefly LUC (from UniProt O22259 1-171)
binds | RAP2.2, full-length, fused to the C-terminal part of the firefly LUC (from UniProt Q9LUM4 1-379)
binds | RAP2.12, full-length, fused to the C-terminal part of the firefly LUC (from UniProt Q9SSA8 1-358)
binds | RELATED TO AP2.3 (RAP2.3), full-length, fused to the C-terminal part of the firefly LUC (from UniProt P42736 1-248)
binds | hypoxia-responsive ERF 1 (HRE1), full-length, fused to the C-terminal part of the firefly LUC (from UniProt Q8H0T5 1-262)
